In patent publication WO2021032966A1:
These are yes or no findings as the source states them, for the method shown. Some entries that bind do so weakly or less than the wild type.

Amino acid sequences for entries named in this document (tags omitted). Residues count along the entry.
UniProt P05067, residues 671-711: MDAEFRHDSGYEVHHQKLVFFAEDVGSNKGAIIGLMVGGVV

Assays:
[1] = molecular target: Zn2+-stabilised Ab40 oligomers (UniProt P05067); assay: dot blot, DesAbs spotted on nitrocellulose, incubated with Ab40 oligomers, revealed with 6E10
[2] = molecular target: Zn2+-stabilised Ab40 oligomers (UniProt P05067); assay: ELISA with immobilised DesAbs and Ab40 oligomers in solution, compared with the ANS assay

B1: DesAb-O (VHH)
VHH: EVQLVESGGGLVQPGGSLRLSCAASGFNIKDTYIGWVRRAPGKGEEWVASIYPTNGYTRYADSVKGRFTISADTSKNTAYLQMNSLRAEDTAVYYCAAGSESAFGRAEEEAAAWGQGTLVTVSS
With B1 as the binder, how does the binding [1] read?
The binding was “binds”.

And the binding [2]?
Its binding is “binds”.
